# Source: paper PMC7947682
# Sequences of proteins named here, by UniProt entry; tags and fusion partners are left off.
# UniProt Q14677: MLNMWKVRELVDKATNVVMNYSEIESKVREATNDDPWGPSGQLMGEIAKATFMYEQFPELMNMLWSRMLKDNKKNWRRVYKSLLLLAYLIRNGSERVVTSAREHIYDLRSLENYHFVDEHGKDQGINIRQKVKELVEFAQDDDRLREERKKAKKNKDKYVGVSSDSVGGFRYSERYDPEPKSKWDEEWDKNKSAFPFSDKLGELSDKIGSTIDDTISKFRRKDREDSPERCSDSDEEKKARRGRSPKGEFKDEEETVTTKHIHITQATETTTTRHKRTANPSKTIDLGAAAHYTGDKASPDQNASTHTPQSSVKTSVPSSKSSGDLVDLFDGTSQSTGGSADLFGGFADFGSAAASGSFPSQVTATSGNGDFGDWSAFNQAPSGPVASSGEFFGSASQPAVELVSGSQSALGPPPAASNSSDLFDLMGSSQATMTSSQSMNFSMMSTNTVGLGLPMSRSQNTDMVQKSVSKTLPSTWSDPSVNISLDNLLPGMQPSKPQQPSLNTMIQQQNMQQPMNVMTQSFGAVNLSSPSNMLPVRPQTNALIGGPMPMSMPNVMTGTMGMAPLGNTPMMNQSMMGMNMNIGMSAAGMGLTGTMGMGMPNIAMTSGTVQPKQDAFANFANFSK
# UniProt O75190: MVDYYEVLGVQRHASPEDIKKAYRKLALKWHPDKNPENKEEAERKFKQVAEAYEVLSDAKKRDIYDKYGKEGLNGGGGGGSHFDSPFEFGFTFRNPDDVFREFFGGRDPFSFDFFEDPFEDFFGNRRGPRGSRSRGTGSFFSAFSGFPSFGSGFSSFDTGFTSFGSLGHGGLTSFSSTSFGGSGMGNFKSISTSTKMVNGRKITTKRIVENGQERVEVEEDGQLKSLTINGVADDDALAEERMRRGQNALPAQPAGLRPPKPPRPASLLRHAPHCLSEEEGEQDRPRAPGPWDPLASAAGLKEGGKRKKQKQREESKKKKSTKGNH
# UniProt Q9P0J7: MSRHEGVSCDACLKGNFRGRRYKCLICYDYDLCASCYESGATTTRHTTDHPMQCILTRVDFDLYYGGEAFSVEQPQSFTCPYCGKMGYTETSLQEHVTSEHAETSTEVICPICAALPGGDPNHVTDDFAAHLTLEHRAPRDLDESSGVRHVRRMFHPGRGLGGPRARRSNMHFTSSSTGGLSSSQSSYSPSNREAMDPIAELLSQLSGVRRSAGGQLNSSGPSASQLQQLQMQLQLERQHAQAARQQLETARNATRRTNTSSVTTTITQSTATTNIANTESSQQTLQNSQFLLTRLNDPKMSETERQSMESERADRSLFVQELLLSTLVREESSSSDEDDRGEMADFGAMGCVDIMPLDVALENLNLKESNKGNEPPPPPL
# UniProt Q13547: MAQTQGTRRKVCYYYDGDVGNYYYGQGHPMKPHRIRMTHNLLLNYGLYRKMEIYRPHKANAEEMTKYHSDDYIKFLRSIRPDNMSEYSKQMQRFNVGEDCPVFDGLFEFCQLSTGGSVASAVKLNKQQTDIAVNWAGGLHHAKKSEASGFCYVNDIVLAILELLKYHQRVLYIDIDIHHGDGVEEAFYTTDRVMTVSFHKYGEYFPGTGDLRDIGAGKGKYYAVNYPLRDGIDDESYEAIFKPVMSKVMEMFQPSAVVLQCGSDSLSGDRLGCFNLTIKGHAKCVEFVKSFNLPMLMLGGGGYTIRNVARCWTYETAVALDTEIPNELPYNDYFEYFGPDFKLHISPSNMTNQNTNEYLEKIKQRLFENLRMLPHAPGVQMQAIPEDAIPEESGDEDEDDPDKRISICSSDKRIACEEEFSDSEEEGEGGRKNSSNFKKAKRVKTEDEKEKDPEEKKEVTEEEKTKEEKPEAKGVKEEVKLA
# UniProt Q5JSZ5: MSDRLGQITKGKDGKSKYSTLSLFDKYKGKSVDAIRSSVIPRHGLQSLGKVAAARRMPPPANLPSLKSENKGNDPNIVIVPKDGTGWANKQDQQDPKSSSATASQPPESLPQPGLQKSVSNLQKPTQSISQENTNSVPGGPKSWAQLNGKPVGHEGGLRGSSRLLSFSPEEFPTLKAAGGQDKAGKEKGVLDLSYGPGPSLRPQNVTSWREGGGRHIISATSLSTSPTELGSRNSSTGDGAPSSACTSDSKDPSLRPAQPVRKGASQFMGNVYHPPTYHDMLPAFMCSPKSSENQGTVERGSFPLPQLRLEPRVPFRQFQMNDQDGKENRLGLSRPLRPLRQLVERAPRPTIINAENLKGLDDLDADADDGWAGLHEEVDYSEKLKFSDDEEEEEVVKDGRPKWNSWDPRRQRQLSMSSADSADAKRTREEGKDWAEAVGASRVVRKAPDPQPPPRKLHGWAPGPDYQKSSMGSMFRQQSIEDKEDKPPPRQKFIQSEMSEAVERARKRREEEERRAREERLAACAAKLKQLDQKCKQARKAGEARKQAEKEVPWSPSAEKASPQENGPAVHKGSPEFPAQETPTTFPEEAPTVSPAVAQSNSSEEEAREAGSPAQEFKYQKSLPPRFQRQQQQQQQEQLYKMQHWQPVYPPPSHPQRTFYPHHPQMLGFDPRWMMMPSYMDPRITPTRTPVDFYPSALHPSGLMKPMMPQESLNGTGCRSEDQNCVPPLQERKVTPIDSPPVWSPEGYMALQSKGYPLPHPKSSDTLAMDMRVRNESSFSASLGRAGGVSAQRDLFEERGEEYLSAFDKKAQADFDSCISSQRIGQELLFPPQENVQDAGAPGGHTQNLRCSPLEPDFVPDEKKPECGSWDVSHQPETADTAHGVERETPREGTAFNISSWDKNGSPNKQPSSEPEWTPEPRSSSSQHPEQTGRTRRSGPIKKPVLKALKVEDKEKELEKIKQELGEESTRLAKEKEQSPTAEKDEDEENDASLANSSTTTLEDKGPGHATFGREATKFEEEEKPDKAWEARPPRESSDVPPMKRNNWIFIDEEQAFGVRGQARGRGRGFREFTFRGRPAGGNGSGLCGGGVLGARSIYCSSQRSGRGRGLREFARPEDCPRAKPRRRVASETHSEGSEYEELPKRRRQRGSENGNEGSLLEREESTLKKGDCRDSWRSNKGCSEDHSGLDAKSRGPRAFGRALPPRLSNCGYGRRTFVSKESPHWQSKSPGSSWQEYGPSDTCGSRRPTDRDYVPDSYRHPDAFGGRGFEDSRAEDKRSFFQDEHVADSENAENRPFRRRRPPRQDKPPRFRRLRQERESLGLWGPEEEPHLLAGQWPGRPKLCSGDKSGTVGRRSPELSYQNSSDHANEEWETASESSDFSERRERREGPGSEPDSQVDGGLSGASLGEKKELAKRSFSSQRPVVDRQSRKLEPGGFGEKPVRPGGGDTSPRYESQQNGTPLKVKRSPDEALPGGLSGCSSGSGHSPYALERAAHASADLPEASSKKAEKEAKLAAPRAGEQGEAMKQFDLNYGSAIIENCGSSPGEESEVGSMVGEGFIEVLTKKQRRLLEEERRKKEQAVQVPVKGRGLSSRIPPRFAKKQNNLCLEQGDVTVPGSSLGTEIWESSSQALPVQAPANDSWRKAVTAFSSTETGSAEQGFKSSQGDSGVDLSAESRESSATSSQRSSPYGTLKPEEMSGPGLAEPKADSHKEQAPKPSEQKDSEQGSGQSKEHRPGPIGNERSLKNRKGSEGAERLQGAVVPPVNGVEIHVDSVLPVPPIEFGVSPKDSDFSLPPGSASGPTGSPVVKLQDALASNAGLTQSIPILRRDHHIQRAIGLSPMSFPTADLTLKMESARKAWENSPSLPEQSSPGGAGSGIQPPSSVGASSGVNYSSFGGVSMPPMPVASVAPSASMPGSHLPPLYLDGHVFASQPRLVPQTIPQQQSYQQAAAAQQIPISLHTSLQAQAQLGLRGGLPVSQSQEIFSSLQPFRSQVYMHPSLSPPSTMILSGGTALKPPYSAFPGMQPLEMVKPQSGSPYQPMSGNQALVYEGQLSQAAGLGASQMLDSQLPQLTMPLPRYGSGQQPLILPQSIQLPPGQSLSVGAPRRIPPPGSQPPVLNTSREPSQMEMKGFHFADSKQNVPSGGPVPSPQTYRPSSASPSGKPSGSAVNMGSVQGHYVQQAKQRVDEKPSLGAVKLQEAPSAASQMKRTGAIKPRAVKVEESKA
# UniProt O43347: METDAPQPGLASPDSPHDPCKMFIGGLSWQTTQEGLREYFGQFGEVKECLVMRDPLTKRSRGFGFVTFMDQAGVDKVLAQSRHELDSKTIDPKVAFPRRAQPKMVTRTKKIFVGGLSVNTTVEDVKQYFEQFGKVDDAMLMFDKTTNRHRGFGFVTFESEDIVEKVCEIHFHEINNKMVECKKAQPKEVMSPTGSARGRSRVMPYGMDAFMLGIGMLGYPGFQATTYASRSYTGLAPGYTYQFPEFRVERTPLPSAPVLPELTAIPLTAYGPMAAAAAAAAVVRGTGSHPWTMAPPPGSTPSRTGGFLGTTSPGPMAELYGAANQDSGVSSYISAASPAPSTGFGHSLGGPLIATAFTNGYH
# UniProt Q9UPQ9: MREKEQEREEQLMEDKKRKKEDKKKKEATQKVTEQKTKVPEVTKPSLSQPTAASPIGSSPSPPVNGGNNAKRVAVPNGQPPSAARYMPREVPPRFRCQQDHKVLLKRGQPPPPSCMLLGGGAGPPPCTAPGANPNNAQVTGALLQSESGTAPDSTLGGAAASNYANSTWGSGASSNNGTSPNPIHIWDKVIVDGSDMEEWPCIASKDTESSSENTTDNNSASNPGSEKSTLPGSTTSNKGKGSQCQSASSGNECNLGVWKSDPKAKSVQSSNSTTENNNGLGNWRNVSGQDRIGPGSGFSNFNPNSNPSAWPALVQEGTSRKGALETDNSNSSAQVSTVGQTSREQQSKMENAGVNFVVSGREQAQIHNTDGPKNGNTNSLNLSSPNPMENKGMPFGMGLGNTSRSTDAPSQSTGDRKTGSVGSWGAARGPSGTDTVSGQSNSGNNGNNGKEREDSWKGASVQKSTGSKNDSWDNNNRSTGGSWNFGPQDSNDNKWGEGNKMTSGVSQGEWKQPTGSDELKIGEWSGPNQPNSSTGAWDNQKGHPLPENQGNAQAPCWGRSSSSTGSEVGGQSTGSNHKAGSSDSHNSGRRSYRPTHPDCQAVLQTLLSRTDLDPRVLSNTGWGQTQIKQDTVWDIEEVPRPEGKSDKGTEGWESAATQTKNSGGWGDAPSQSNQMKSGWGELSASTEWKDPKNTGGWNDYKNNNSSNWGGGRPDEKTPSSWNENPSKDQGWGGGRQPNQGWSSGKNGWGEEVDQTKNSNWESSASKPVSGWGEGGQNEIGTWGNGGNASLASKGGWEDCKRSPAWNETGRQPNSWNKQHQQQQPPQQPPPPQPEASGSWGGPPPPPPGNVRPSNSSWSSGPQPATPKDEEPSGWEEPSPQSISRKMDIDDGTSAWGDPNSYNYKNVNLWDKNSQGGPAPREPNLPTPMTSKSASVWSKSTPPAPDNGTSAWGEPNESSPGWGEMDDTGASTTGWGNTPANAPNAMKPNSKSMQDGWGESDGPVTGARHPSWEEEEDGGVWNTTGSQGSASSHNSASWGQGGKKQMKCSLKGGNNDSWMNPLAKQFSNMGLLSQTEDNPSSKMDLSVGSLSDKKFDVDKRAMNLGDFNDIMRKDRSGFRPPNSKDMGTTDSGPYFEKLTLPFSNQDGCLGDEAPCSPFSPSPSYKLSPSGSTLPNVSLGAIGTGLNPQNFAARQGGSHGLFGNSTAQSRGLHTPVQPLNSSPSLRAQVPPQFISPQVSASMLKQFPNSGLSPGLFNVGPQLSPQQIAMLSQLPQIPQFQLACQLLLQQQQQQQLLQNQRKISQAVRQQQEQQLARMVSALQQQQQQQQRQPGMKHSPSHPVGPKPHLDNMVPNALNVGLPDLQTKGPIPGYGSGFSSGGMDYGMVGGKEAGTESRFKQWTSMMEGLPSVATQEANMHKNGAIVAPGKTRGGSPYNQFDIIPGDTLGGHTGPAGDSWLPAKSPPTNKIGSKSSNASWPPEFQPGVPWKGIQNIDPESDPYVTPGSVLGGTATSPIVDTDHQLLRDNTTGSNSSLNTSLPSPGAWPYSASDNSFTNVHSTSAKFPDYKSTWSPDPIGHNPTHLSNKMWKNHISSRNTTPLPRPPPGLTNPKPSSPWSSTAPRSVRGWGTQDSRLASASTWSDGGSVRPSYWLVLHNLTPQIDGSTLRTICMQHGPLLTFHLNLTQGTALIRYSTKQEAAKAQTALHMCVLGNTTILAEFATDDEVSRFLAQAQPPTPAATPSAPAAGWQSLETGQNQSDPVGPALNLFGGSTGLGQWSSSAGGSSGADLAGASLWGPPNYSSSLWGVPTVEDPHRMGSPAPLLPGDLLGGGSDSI
# These are yes or no findings as the source states them, for the method shown. In cells and extracts the contact can be indirect. A yes stands for co-enrichment or nearness to the bait. Other partners may have been found.
# T1: Avi-FOXA2 (UniProt Q9Y261)
# T1 sequence (chain, biotin on the Avi tag (biotin tagging system with co-expressed E. coli BirA)): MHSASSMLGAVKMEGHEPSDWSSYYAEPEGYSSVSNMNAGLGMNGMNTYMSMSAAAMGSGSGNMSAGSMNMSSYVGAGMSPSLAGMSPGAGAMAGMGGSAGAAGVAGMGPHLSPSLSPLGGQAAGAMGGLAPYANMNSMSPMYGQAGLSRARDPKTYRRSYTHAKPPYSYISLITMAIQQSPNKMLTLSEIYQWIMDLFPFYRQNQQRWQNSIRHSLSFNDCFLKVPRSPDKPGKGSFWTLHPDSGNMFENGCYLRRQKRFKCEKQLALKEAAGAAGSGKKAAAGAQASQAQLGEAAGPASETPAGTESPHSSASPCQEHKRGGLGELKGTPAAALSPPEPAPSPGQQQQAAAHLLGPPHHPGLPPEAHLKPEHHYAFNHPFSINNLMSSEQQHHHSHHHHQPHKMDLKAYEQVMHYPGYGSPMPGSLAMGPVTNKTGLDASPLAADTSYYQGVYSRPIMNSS
# Biological target: T1, Avi-FOXA2
# Assay: affinity purification with mass spectrometry; MCF-7 cells transfected with pAvi-FOXA2 and pEF1-BirA; lysate (150 mM NaCl, 1% NP-40, 50 mM Tris-HCl pH 7.4) on streptavidin resin overnight, washed four times; SDS-PAGE, trypsin digest, LTQ Orbitrap Velos
row,binding,Molecule
1,binds,Clathrin interactor 1 (from UniProt Q14677 1-625)
2,binds,DNA-dependent protein kinase catalytic subunit (from UniProt P78527 1-4128)
3,binds,DnaJ homolog subfamily B member 6 (Fragment) (from UniProt O75190 1-326)
4,binds,E3 ubiquitin-protein ligase KCMF1 (from UniProt Q9P0J7 1-381)
5,binds,Histone deacetylase 1 (from UniProt Q13547 1-482)
6,binds,Isoform 5 of Nuclear receptor coactivator 3 (from UniProt Q9Y6Q9-5 1-1420)
7,binds,Protein PRRC2B (from UniProt Q5JSZ5 1-2229)
8,binds,Protein diaphanous homolog 1 (from UniProt O60610 1-1272)
9,binds,RNA-binding protein Musashi homolog 1 (from UniProt O43347 1-362)
10,binds,Trinucleotide repeat-containing gene 6B protein (Fragment) (from UniProt Q9UPQ9 1-1833)
11,binds,"Melanoma-associated antigen D1 (protein, UniProt Q9Y5V3 1-778) MAQKMDCGAGLLGFQAEASVEDSALLMQTLMEAIQISEAPPTNQATAAASPQSSQPPTANEMADIQVSAAAARPKSAFKVQNATTKGPNGVYDFSQAHNAKDVPNTQPKAAFKSQNATPKGPNAAYDFSQAATTGELAANKSEMAFKAQNATTKVGPNATYNFSQSLNANDLANSRPKTPFKAWNDTTKAPTADTQTQNVNQAKMATSQADIETDPGISEPDGATAQTSADGSQAQNLESRTIIRGKRTRKINNLNVEENSSGDQRRAPLAAGTWRSAPVPVTTQNPPGAPPNVLWQTPLAWQNPSGWQNQTARQTPPARQSPPARQTPPAWQNPVAWQNPVIWPNPVIWQNPVIWPNPIVWPGPVVWPNPLAWQNPPGWQTPPGWQTPPGWQGPPDWQGPPDWPLPPDWPLPPDWPLPTDWPLPPDWIPADWPIPPDWQNLRPSPNLRPSPNSRASQNPGAAQPRDVALLQERANKLVKYLMLKDYTKVPIKRSEMLRDIIREYTDVYPEIIERACFVLEKKFGIQLKEIDKEEHLYILISTPESLAGILGTTKDTPKLGLLLVILGVIFMNGNRASEAVLWEALRKMGLRPGVRHPLLGDLRKLLTYEFVKQKYLDYRRVPNSNPPEYEFLWGLRSYHETSKMKVLRFIAEVQKRDPRDWTAQFMEAADEALDALDAAAAEAEARAEARTRMGIGDEAVSGPWSWDDIEFELLTWDEEGDFGDPWSRIPFTFWARYHQNARSRFPQTFAGPIIGPGGTASANFAANFGAIGFFWVE"
12,binds,"Isoform 2 of Arf-GAP domain and FG repeat-containing protein 1 (protein, UniProt P52594-2 1-522) MAASAKRKQEEKHLKMLRDMTGLPHNRKCFDCDQRGPTYVNMTVGSFVCTSCSGSLRGLNPPHRVKSISMTTFTQQEIEFLQKHGNEVCKQIWLGLFDDRSSAIPDFRDPQKVKEFLQEKYEKKRWYVPPEQAKVVASVHASISGSSASSTSSTPEVKPLKSLLGDSAPTLHLNKGTPSQSPVVGRSQGQQQEKKQFDLLSDLGSDIFAAPAPQSTATANFANFAHFNSHAGGSAASVNANFAHFDNFPKSSSADFGTFNTSQSHQTASAVSKVSTNKAGLQTADKYAALANLDNIFSAGQGGDQGSGFGTTGKAPVGSVVSVPSQSSASSDKYAALAELDSVFSSAATSSNAYTSTSNASSNVFGTVPVVASAQTQPASSSVPAPFGATPSTNPFVAAAGPSVASSTNPFQTNARGATAATFGTASMSMPTGFGTPAPYSLPTSFSGSFQQPAFPAQAAFPQQTAFSQQPNGAGFAAFGQTKPVVTPFGQVAAAGVSSNPFMTGAPTGQFPTGSSSTNPFL"
13,binds,"Isoform 3 of CREB-regulated transcription coactivator 3 (protein, UniProt Q6UUV7-3 1-618) MAASPGSGSANPRKFSEKIALHTQRQAEETRAFEQLMTDLTLSRVQFQKLQQLRLTQYHGGSLPNVSQLRSSASEFQPSFHQADNVRGTRHHGLVERPSRNRFHPLHRRSGDKPGRQFDGSAFGANYSSQPLDESWPRQQPPWKDEKHPGFRLTSALNRTNSDSALHTSALSTKPQDPYGGGGQSAWPAPYMGFCDGENNGHGEVASFPGPLKEENLLNVPKPLPKQLWETKEIQSLSGRPRSCDVGGGNAFPHNGQNLGLSPFLGTLNTGGSLPDLTNLHYSTPLPASLDTTDHHFGSMSVGNSVNNIPAAMTHLGIRSSSGLQSSRSNPSIQATLNKTVLSSSLNNHPQTSVPNASALHPSLRLFSLSNPSLSTTNLSGPSRRRQPPVSPLTLSPGPEAHQGFSRQLSSTSPLAPYPTSQMVSSDRSQLSFLPTEAQAQVSPPPPYPAPQELTQPLLQQPRAPEAPAQQPQAASSLPQSDFQLLPAQGSSLTNFFPDVGFDQQSMRPGPAFPQQVPLVQQGSRELQDSFHLRPSPYSNCGSLPNTILPDSSTSLFKDLNSALAGLPEVSLNVDTPFPLEEELQIEPLSLDGLNMLSDSSMGLLDPSVEETFRADRL"
14,binds,"DDB1- and CUL4-associated factor 7 (protein, UniProt P61962 1-342) MSLHGKRKEIYKYEAPWTVYAMNWSVRPDKRFRLALGSFVEEYNNKVQLVGLDEESSEFICRNTFDHPYPTTKLMWIPDTKGVYPDLLATSGDYLRVWRVGETETRLECLLNNNKNSDFCAPLTSFDWNEVDPYLLGTSSIDTTCTIWGLETGQVLGRVNLVSGHVKTQLIAHDKEVYDIAFSRAGGGRDMFASVGADGSVRMFDLRHLEHSTIIYEDPQHHPLLRLCWNKQDPNYLATMAMDGMEVVILDVRVPCTPVARLNNHRACVNGIAWAPHSSCHICTAADDHQALIWDIQQMPRAIEDPILAYTAEGEINNVQWASTQPDWIAICYNNCLEILRV"
15,binds,"Zinc finger CCCH domain-containing protein 18 (Fragment) (protein, UniProt Q86VM9 1-953) MDVAESPERDPHSPEDEEQPQGLSDDDILRDSGSDQDLDGAGVRASDLEDEESAARGPSQEEEDNHSDEEDRASEPKSQDQDSEVNELSRGPTSSPCEEEGDEGEEDRTSDLRDEASSVTRELDEHELDYDEEVPEEPAPAVQEDEAEKAGAEDDEEKGEGTPREEGKAGVQSVGEKESLEAAKEKKKEDDDGEIDDGEIDDDDLEEGEVKDPSDRKVRPRPTCRFFMKGNCTWGMNCRFIHPGVNDKGNYSLITKADPFPPNGAPPLGPHPLMPANPWGGPVVDEILPPPPPEPPTESAWERGLRHAKEVLKKATIRKEQEPDFEEKRFTVTIGEDEREFDKENEVFRDWNSRIPRDVRDTVLEPYADPYYDYEIERFWRGGQYENFRVQYTETEPYHNYRERERERERENRQRERERERERDRERERRQRERERERERERDKERQRRKEEWERERAKRDEKDRQHRDRDREKEREKEKGKPKPRSPQPPSRQAEPPKKEAATTGPQVKRADEWKDPWRRSKSPKKKLGVSVSPSRARRRRKTSASSASASNSSRSSSRSSSYSGSGSSRSRSRSSSYSSYSSRSSRHSSFSGSRSRSRSFSSSPSPSPTPSPHRPSIRTKGEPAPPPGKAGEKSVKKPAPPPAPPQATKTTAPVPEPTKPGDPREARRKERPARTPPRRRTLSGSGSGSGSSYSGSSSRSRSLSVSSVSSVSSATSSSSSAHSVDSEDMYADLASPVSSASSRSPAPAQTRKEKGKSKKEDGVKEEKRKRDSSTQPPKSAKPPAGGKSSQQPSTPQQAPPGQPQQGTFVAHKEIKLTLLNKAADKGSRKRYEPSDKDRQSPPPAKRPNTSPDRGSRDRKSGGRLGSPKPERQRGQNSKAPAAPADRKRQLSPQSKSSSKVTSVPGKASDPGAASTKSGKASTLSRREELLKQLKAVEDAIARKRAKIPGKA"
16,binds,"Methylcrotonoyl-CoA carboxylase beta chain, mitochondrial (Fragment) (protein, UniProt Q9HCC0 23-563) YHGDSVASLGTQPDLGSALYQENYKQMKALVNQLHERVEHIKLGGGEKARALHISRGKLLPRERIDNLIDPGSPFLELSQFAGYQLYDNEEVPGGGIITGIGRVSGVECMIIANDATVKGGAYYPVTVKKQLRAQEIAMQNRLPCIYLVDSGGAYLPRQADVFPDRDHFGRTFYNQAIMSSKNIAQIAVVMGSCTAGGAYVPAMADENIIVRKQGTIFLAGPPLVKAATGEEVSAEDLGGADLHCRKSGVSDHWALDDHHALHLTRKVVRNLNYQKKLDVTIEPSEEPLFPADELYGIVGANLKRSFDVREVIARIVDGSRFTEFKAFYGDTLVTGFARIFGYPVGIVGNNGVLFSESAKKGTHFVQLCCQRNIPLLFLQNITGFMVGREYEAEGIAKDGAKMVAAVACAQVPKITLIIGGSYGAGNYGMCGRAYSPRFLYIWPNARISVMGGEQAANVLATITKDQRAREGKQFSSADEAALKEPIIKKFEEEGNPYYSSARVWDDGIIDPADTRLVLGLSFSAALNAPIEKTDFGIFRM"
17,binds,"Eukaryotic translation initiation factor 4E transporter (protein, UniProt Q9NRA8 1-985) MDRRSMGETESGDAFLDLKKPPASKCPHRYTKEELLDIKELPHSKQRPSCLSEKYDSDGVWDPEKWHASLYPASGRSSPVESLKKELDTDRPSLVRRIVDPRERVKEDDLDVVLSPQRRSFGGGCHVTAAVSSRRSGSPLEKDSDGLRLLGGRRIGSGRIISARTFEKDHRLSDKDLRDLRDRDRERDFKDKRFRREFGDSKRVFGERRRNDSYTEEEPEWFSAGPTSQSETIELTGFDDKILEEDHKGRKRTRRRTASVKEGIVECNGGVAEEDEVEVILAQEPAADQEVPRDAVLPEQSPGDFDFNEFFNLDKVPCLASMIEDVLGEGSVSASRFSRWFSNPSRSGSRSSSLGSTPHEELERLAGLEQAILSPGQNSGNYFAPIPLEDHAENKVDILEMLQKAKVDLKPLLSSLSANKEKLKESSHSGVVLSVEEVEAGLKGLKVDQQVKNSTPFMAEHLEETLSAVTNNRQLKKDGDMTAFNKLVSTMKASGTLPSQPKVSRNLESHLMSPAEIPGQPVPKNILQELLGQPVQRPASSNLLSGLMGSLEPTTSLLGQRAPSPPLSQVFQTRAASADYLRPRIPSPIGFTPGPQQLLGDPFQGMRKPMSPITAQMSQLELQQAALEGLALPHDLAVQAANFYQPGFGKPQVDRTRDGFRNRQQRVTKSPAPVHRGNSSSPAPAASITSMLSPSFTPTSVIRKMYESKEKSKEEPASGKAALGDSKEDTQKASEENLLSSSSVPSADRDSSPTTNSKLSALQRSSCSTPLSQANRYTKEQDYRPKATGRKTPTLASPVPTTPFLRPVHQVPLVPHVPMVRPAHQLHPGLVQRMLAQGVHPQHLPSLLQTGVLPPGMDLSHLQGISGPILGQPFYPLPAASHPLLNPRPGTPLHLAMVQQQLQRSVLHPPGSGSHAAAVSVQTTPQNVPSRSGLPHMHSQLEHRPSQRSSSPVGLAKWFGSDVLQQPLPSMPAKVISVDELEYRQ"

row,Molecule,binding
1,Acetyl-CoA carboxylase 2 (human (endogenous in MCF-7)),binds
